Earlier results on 1 compound are cited in PMC3909768 (Journal of Cancer, 2014).

This series addresses GABA receptors. Conditions: read-out: IC50, GABA receptors; ref [6]; cited from earlier work.

As for `CNC(=O)c1ccc(N2C(=S)N(c3ccc(C#N)c(C(F)(F)F)c3)C(=O)C2(C)C)cc1F` [MDV3100], the half-inhibitory concentration (IC50) was 2.7 µM.
